Reference: the supplement of paper PMC12819154, “High-throughput peptide-centric local stability assay extends protein–ligand identification to membrane proteins, tissues and bacteria” (Nature Structural & Molecular Biology, 2025)
The list shows a part of the results. Most values lie at the level of the controls, where differences are scatter.

Protein sequences, listed by entry. Tags and fused reporters are not part of them. Lines headed by an entry give the natural chain unless they say otherwise; changes in a name come on top.
UniProt P14324: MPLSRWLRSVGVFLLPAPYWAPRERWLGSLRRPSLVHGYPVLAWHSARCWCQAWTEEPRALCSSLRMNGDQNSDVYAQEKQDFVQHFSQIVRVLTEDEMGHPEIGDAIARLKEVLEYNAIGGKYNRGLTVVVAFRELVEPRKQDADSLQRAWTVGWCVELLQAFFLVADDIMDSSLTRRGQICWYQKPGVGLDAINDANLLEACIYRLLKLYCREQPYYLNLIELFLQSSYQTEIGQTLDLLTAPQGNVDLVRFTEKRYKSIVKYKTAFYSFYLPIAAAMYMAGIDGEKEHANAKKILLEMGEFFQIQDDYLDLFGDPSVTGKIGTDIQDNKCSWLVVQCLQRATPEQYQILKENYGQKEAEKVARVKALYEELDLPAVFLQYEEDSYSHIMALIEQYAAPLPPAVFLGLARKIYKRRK
UniProt P17028: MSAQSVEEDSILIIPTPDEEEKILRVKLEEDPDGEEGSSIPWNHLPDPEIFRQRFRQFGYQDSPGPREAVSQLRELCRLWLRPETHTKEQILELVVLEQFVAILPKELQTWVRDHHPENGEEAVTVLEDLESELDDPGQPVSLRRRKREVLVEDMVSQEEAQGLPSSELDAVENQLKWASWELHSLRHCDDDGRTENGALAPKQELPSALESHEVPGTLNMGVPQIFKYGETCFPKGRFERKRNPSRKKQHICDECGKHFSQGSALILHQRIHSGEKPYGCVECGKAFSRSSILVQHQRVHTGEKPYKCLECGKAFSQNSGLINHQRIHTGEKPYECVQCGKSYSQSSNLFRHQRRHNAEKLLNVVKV
UniProt P21333, whole entry: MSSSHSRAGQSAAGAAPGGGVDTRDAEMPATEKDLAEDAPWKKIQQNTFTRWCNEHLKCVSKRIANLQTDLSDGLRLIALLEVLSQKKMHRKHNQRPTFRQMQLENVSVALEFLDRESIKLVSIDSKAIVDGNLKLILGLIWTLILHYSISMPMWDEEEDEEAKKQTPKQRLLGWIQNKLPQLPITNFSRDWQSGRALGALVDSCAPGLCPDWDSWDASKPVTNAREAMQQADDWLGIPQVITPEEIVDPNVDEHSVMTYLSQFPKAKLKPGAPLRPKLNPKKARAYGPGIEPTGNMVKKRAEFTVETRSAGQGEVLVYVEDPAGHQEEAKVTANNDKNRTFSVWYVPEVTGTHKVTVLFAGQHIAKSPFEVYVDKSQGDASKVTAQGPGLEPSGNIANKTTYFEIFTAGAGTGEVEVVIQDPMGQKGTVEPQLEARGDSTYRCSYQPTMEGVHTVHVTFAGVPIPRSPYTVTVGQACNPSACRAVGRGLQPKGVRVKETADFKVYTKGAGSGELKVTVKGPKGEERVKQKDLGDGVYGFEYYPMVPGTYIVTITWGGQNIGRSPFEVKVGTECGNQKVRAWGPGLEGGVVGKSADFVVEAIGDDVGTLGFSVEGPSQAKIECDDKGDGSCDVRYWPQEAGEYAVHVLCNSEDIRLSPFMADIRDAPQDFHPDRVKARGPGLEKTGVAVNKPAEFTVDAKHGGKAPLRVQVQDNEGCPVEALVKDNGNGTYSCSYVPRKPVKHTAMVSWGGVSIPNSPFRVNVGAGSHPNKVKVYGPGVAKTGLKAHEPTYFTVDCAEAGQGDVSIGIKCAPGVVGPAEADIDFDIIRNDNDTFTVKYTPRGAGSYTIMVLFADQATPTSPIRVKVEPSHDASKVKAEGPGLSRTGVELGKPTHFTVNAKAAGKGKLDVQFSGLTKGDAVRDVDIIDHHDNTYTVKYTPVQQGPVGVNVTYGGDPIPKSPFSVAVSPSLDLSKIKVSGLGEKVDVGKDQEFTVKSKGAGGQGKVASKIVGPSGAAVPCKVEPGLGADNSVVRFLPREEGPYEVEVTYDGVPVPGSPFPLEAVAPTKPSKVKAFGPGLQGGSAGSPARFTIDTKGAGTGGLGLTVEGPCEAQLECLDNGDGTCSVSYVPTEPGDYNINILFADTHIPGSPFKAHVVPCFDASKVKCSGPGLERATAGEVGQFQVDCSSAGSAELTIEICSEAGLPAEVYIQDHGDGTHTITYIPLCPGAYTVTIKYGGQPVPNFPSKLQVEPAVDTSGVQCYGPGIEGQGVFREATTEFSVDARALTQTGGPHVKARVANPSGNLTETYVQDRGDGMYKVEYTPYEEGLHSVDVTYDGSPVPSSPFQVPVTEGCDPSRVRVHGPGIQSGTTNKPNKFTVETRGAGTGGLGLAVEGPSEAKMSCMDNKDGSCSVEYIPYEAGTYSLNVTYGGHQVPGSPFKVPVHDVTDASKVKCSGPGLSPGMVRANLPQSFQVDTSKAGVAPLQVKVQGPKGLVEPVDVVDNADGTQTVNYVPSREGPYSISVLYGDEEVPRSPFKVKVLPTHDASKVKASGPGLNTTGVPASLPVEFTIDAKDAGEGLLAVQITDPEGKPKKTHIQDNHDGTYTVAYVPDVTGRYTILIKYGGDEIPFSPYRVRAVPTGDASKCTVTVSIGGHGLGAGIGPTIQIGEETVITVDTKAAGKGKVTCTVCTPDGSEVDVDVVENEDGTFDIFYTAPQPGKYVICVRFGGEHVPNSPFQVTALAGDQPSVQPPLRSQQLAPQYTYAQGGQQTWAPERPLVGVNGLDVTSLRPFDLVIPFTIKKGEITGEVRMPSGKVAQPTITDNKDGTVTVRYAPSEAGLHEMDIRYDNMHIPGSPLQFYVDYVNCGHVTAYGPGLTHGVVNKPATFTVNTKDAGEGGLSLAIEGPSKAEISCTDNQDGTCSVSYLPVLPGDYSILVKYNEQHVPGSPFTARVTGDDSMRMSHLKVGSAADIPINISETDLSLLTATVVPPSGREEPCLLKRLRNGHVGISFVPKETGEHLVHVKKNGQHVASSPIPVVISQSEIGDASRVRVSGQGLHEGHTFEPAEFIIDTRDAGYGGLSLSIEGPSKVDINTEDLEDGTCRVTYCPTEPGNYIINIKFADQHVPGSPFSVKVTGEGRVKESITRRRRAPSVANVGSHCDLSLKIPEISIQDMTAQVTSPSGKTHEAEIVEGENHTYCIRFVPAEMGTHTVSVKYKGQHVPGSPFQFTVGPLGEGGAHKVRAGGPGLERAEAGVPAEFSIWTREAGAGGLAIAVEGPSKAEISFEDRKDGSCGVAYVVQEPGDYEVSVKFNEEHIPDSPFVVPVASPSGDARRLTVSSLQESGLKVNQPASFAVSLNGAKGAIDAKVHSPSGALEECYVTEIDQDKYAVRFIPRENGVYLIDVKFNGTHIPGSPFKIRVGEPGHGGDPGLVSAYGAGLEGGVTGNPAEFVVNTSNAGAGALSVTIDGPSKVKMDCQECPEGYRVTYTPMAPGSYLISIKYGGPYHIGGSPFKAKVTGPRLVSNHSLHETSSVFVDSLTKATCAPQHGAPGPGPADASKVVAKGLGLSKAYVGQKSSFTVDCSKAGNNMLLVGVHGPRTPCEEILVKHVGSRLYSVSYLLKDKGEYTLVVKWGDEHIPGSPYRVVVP
UniProt P27695, whole entry: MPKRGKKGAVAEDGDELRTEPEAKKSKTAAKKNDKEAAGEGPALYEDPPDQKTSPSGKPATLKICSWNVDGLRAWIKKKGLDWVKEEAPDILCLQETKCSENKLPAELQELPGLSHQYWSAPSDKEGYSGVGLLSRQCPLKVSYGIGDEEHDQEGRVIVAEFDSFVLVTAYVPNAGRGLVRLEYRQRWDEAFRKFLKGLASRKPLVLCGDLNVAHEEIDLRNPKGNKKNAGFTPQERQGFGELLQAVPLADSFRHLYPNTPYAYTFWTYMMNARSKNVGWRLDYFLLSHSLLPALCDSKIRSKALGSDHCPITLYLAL
UniProt P25054, whole entry: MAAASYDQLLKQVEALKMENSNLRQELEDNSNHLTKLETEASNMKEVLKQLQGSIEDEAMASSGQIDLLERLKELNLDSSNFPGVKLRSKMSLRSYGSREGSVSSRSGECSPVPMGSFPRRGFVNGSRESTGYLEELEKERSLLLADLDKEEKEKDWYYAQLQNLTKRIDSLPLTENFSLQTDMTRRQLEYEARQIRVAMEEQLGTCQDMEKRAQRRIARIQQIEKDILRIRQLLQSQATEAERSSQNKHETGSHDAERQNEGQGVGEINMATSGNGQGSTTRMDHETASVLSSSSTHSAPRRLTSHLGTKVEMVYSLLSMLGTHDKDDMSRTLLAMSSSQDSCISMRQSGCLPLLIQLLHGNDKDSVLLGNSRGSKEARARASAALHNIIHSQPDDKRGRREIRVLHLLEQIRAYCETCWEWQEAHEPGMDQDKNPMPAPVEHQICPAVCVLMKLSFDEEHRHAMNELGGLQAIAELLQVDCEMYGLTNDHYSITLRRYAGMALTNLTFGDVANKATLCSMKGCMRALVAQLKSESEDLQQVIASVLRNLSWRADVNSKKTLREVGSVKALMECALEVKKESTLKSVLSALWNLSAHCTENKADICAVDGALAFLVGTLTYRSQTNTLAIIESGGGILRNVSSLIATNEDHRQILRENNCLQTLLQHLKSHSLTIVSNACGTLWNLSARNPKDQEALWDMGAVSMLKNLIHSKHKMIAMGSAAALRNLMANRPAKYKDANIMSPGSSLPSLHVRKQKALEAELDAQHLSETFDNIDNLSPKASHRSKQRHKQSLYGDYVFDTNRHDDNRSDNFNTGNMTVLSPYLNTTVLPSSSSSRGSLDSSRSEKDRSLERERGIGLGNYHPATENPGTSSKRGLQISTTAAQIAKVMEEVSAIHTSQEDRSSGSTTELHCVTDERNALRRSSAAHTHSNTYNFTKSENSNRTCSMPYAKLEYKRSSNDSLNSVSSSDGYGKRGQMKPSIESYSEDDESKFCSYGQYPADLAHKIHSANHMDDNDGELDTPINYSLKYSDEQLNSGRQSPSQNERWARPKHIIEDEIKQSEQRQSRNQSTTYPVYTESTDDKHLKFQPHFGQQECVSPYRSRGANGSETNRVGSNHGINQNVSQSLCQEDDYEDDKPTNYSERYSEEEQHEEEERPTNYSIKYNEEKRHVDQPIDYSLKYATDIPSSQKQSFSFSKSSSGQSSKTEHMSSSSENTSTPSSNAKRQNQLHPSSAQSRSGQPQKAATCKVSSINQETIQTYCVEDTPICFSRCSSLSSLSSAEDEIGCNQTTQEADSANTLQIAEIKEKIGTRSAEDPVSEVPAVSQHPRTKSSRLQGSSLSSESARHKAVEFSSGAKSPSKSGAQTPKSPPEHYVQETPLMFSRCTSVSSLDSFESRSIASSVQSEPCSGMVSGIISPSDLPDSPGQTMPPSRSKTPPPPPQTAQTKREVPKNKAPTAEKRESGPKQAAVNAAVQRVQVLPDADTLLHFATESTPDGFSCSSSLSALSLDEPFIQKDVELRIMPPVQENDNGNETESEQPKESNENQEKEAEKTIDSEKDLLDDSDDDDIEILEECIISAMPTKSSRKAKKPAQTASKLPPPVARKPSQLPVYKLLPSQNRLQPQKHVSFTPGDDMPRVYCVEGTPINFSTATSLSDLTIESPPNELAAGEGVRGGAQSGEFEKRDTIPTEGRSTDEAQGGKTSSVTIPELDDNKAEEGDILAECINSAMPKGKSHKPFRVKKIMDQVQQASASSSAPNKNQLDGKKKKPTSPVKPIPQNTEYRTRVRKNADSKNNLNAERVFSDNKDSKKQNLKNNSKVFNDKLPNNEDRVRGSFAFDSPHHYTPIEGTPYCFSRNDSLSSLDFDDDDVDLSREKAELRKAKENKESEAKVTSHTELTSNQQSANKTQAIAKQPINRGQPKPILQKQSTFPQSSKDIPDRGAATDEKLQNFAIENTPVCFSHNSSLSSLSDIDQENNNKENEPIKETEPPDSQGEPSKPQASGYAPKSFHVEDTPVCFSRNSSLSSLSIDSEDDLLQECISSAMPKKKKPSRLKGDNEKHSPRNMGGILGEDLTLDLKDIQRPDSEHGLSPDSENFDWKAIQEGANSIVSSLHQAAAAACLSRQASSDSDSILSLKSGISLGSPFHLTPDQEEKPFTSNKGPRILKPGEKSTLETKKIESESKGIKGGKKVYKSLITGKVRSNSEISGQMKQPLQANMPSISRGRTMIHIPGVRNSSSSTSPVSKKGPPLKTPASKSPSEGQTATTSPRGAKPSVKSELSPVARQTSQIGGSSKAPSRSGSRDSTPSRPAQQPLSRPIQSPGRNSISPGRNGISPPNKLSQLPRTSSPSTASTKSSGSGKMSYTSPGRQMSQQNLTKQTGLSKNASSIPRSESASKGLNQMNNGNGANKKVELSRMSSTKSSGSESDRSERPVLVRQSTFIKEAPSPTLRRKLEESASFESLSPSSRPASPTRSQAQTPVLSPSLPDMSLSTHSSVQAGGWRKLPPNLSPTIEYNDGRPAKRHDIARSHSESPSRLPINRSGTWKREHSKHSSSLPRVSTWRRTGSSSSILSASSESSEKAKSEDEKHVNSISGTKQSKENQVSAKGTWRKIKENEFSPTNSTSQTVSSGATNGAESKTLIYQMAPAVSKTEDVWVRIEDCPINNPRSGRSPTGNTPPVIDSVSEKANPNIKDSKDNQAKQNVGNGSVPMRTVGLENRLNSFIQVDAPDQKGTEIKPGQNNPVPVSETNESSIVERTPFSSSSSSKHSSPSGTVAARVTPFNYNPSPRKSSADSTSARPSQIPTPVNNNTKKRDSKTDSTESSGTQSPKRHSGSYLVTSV

These targets were tested with Cc1nc(Nc2ncc(C(=O)Nc3c(C)cccc3Cl)s2)cc(N2CCN(CCO)CC2)n1 [dasatinib] (assay: log2 fold change of tryptic peptide abundance, ligand vs vehicle (limited proteolysis) (log2 ratio); higher = more trypsin-susceptible (destabilized)). Conditions: ligand concentration: 5 uM; sample: K562 cleared lysate.

| Target | log2 fold change |
| --- | --- |
| FDPS (peptide sequence: LKEVLEYNAIGGKYNR, peptide start residue: 111) (UniProt P14324) | -0.189 |
| UniProt P22033 (peptide sequence: AGQQGLSVAFDLATHR, peptide start residue: 129) | 0.107 |
| ZNF24 (peptide sequence: SYSQSSNLFR, peptide start residue: 343) (UniProt P17028) | -0.177 |
| FLNA (peptide sequence: TGVELGKPTHFTVNAK, peptide start residue: 885) (UniProt P21333) | 0.367 |
| APEX1 (peptide sequence: GAVAEDGDELRTEPEAKK, peptide start residue: 8) (UniProt P27695) | -0.0638 |
| APC (peptide sequence: QSLYGDYVFDTNRHDDNR, peptide start residue: 793) (UniProt P25054) | 0.793 |
| SNRPB (peptide sequence: VLGLVLLR, peptide start residue: 66) (UniProt P14678) | -0.0665 |
| ITGB5 (peptide sequence: DDLDNIR, peptide start residue: 152) (UniProt P18084) | 0.0476 |
